Test results from publication PMC10163288.
The other results are listed elsewhere or left out.

B1: il10ra_site1_sap_18_mot_HHH_b2_00033_000000036_0001_41_54_H_._HHH_b1_01859_0001_0000100001_0000001_0_0001_af2pred_0001 (protein)
chain: SSSSDDEERERYAVEALLLAARRVEDEELVRATLRLAKQIAELLNDPELRRLVEELEEELSSSSS
B2: il10ra_site1_sap_18_mot_HHH_b1_08176_000000188_0001_1_20_H_._HHH_b2_06969_af2_0001_0000200016_0000001_0_0001 (protein)
chain: SSSSSDEAAEQIYKLIREAMEIDDKEEAREILEEALELAEEAGNQVLAIQVRFALEQLHSSSSSS
B3: il10ra_site1_normal_mot_HHH_b2_00277_af2_000000172_0001_1_17_H_._HHH_b2_05212_0001_0000100013_0000001_0_af2pred_0001 (protein)
chain: SSSSDEEVRERVEELLEEAKKVEDPKEVAELLTRAFALATRNRDEELRELVKKVAQEVSESSSSS
B4: il10ra_site1_sap_19_mot_HHH_b1_08508_000000230_0001_42_56_H_._HHH_b1_06584_0001_0000100001_0000001_0_0001 (protein)
chain: SSSSDEERLRVSHLLIQAYAAANEGDEEAVEELLEEARRVAEEGNDPRLEEIVEIVAEELLSSSS
B5: il10ra_site1_sap_21_mot_HHH_b1_05126_000000010_0001_38_52_H_._HHH_b1_01143_0001_0000100005_0000001_1_0001 (protein)
chain: SSSSSDEEEEAEELLEELERLVERNDPERFLKVSIRLLHLAFQLRDHELLQRIWELARAFSSSSS
B6: il10ra_site1_normal_mot_HHH_b2_05540_000000178_0001_1_18_H_._HHH_b1_06139_0001_0000200023_0000002_0 (protein)
chain: SSSSDEEEEELREYLKEIEELIEEGDPQRALQLIWEAAKLAAEANDDEILRILLELLRFVASSSS
B7: il10ra_site1_sap_21_mot_HHH_b2_03220_af2_000000223_0001_23_40_H_._HHH_b1_04109_0001_0000100003_0000001_0_0001 (protein)
chain: SSSSSDELFKAVERAYREAKEAWERGDPEEAREIIEEALELARENNNWVAVMVLEAAEKMFSSSS
B8: il10ra_site1_normal_mot_HHH_b1_05056_000000217_0001_1_20_H_._HHH_b2_07492_0001_0000400021_0000001_0 (protein)
chain: SSSSDVEEEVRELLEQAEELREEGDPEKVAELLLRALELAFRNNDAEALRLIWEVVRKLADSSSS
B9: il10ra_site1_normal_mot_HHH_b1_08411_af2_000000053_0001_1_20_H_._HHH_b2_01245_0001_0000300014_0000002_0 (protein)
chain: SSSSSSEEEEEVRELLEEAKHVPDAQEFFELLRKAIEVAAKANDPELARLVIEVLREWLRSSSSS
B10: il10ra_site1_sap_14_mot_HHH_b1_04065_000000255_0001_41_56_H_._e521b9f01f45ceda164a680f45961af8_0001_af2_0001_0000200010_0000001_0_0001 (protein)
chain: SSSSDELERRAEELLQEAEERNDELLAKSARAVLQAVKRAEELGDPEYAELALRFLEQMLSSSSS
B11: il10ra_site1_normal_mot_HHH_b1_02062_000000185_0001_1_20_H_._HHH_b2_03305_0001_0000200015_0000001_0 (protein)
chain: SSSSSDVSQRLYELSRRAAELDSEGNPEEAEKLLEEAFELAEENNNLVVLHNIEYLLERASSSSS
B12: il10ra_site1_normal_mot_HHH_b2_02337_000000026_0001_38_52_H_._HHH_b1_01793_0001_0000200022_0000001_0 (protein)
chain: SSSSSEEEVEELLKELERLLEEGDQERFSRLAQKIAQLAIRVSDPELLQALWELVREFARKSSSS
B13: il10ra_site1_sap_20_mot_HHH_b1_04607_af2_000000104_0001_41_57_H_._HHH_b1_03852_0001_0000600051_0000001_0_0001_af2pred_0001 (protein)
chain: SSSSSSDEFEELLEEAERLAEELGDERIRISIELDERSYREKGDPLIERALRLLLELLSSSSSSS
B14: il10ra_site1_sap_18_mot_HHH_b1_08133_000000195_0001_1_19_H_._HHH_b1_06661_0001_0000100001_0000001_0_0001_1 (protein)
chain: SSSSSDEEYEEEVEELLEEAKRIPDPRERSHVLLRAVQLAFHGQDPELVRAVWEVFEKLFSSSSS
B15: il10ra_site1_normal_mot_HHH_b1_04592_af2_000000261_0001_39_52_H_._HHH_b1_08709_af2_0001_0000100004_0000001_0_af2pred_0001 (protein)
chain: SSSSDEEKRLVELLERLAKEAAENGDPELAERLLEAAIQIAELSGDPELEEELEELLEEISSSSS
B16: il10ra_site1_sap_18_mot_HHH_b1_06816_000000239_0001_1_19_H_._HHH_b1_02068_0001_0000100002_0000001_0_0001 (protein)
chain: SSSSSEEEELRELLEELKELVEKGDQEKVLRLALRIIRLVFRLSDPEALRELWELMERAGSSSSS
B17: il10ra_site1_normal_mot_e1dd4851c59bc1cdde016f988f6856bd_0001_1_000000200_0001_16_31_H_._HEEHE_3305_0001_0000100005_0000001_0_af2pred_0001 (protein)
chain: DLEREFENRLKFIARAANVRSVTVEEENGKIHVTIEGTERAAEIAAKSAEILAEKLGVEVEVTTE
B18: il10ra_site1_normal_mot_HHH_b2_01235_000000294_0001_1_18_H_._HHH_b2_06400_0001_0000100007_0000001_0 (protein)
chain: SSSSTEESEELYRLLREASELDQEGNPEEARRVLEEAEELAEKLGNLVLLATIEFLLEFISSSSS

biological target: il10ra, Q13651; test: yeast display titration

Binder | apparent Kd
B1 | inactive: no binding seen
B2 | inactive: no binding seen
B3 | inactive: no binding seen
B4 | inactive: no binding seen
B5 | inactive: no binding seen
B6 | inactive: no binding seen
B7 | inactive: no binding seen
B8 | inactive: no binding seen
B9 | inactive: no binding seen
B10 | inactive: no binding seen
B11 | inactive: no binding seen
B12 | inactive: no binding seen
B13 | inactive: no binding seen
B14 | inactive: no binding seen
B15 | inactive: no binding seen
B16 | inactive: no binding seen
B17 | inactive: no binding seen
B18 | inactive: no binding seen

Part of the list above, as labelled records.
B9
  apparent Kd: inactive: no binding seen
B13
  apparent Kd: inactive: no binding seen
